These results are taken from patent US20240277770A1, “SYSTEMS AND METHODS TO IDENTIFY MHC-ASSOCIATED ANTIGENS FOR THERAPEUTIC INTERVENTION” (GENENTECH, INC., priority 2021, published 2024).

Results are given in words; binding and its absence hold for the method and conditions named. A result given as binding can be weak or reduced; the word gives no strength.

The target in this assay is HLA-C*07:01 (human). As to the kind of experiment: HLA-I IP (W6/32) and targeted MS of monoallelic HMy2.C1R cells expressing the polyantigen cassette. The following applies: remark: other sources report otherwise.

Take LTSTVQLIM […]: the binding result is “binds”.
